According to the supplement of paper PMC3334620:
Whole data set: some 33,000 sequences, median “E-score (-0.5 to 0.5)” near -0.0034, cut for the highest 2% near 0.25. This is one part of the list.

What follows are sequences tested against T1, Yap3 (UniProt P38749) (assay: PBM E-score (8-mer binding enrichment) (E-score (-0.5 to 0.5)); higher = stronger / more preferred TF binding). Conditions: protein concentration: 100 nM; construct: GST-full length.
T1 sequence: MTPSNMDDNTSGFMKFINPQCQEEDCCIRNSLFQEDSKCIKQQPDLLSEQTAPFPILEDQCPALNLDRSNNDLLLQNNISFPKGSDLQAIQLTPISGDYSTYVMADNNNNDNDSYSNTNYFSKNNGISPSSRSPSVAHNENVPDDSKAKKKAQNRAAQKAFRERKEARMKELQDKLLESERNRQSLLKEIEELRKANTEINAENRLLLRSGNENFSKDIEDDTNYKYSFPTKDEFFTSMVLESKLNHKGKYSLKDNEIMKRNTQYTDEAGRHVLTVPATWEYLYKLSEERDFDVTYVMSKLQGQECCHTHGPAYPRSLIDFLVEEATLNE
Method in brief: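 Full-length yeast transcription factors or their DNA-binding domains, GST-tagged and expressed with PURExpress, were applied at about 100-200 nM to universal all-10-mer Agilent arrays. These arrays had been made double-stranded by primer extension on fresh or once-stripped slides. Detection used fluorescent anti-GST, normalisation used masliner, and E-scores for ungapped eight-base words pooled with reverse complements came from the Universal PBM Analysis Suite.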
In the case of ATACGGCA, the “PBM E-score” value is reported as 0.0572. For AGTAGGAT, the “PBM E-score” value was -0.0021. AAATTTCC was tested, and the “PBM E-score” value was 0.125. TTCCAAAA was tested, and the “PBM E-score” value was 0.0119. For CGCGGGTA, the “PBM E-score” value was -0.0311. In the case of AACGACTG, the “PBM E-score” value is reported as 0.117. ATACTAGA was tested, and the “PBM E-score” value was 0.177. With CACCTACG the “PBM E-score” value was -0.0777. For AGCTGCAT, the “PBM E-score” value was -0.132. For ATGAGTTA, the “PBM E-score” value was -0.0603. In the case of AGGGATGA, the “PBM E-score” value is reported as -0.0984. In the case of CAGAATTA, the “PBM E-score” value is reported as -0.00899. With CAGTGGCA the “PBM E-score” value was -0.142. With GTTCCATA the “PBM E-score” value was 0.0853. ACAAATGT was tested, and the “PBM E-score” value was 0.118. GAGGAAGA was tested, and the “PBM E-score” value was 0.0109. With CAGCAAGG the “PBM E-score” value was -0.0939. For ATTCACTA, the “PBM E-score” value was 0.104. In the case of GAGCGGAC, the “PBM E-score” value is reported as -0.287. With TATATCGA the “PBM E-score” value was 0.241. With GATGTGGC the “PBM E-score” value was -0.0842. CTCGCGTA was tested, and the “PBM E-score” value was 0.0913. With CCAGGACC the “PBM E-score” value was -0.166. For GTGTACCA, the “PBM E-score” value was 0.0474. In the case of ATAGGGTC, the “PBM E-score” value is reported as -0.096. For AGGTAGAC, the “PBM E-score” value was -0.0382. For CGAAAGCA, the “PBM E-score” value was 0.0948. With CATTGTCA the “PBM E-score” value was 0.0809. GACTTCTC was tested, and the “PBM E-score” value was -0.0144. In the case of TGCACCCA, the “PBM E-score” value is reported as 0.00496. In the case of ACCATTAC, the “PBM E-score” value is reported as 0.162. With CCAACCCC the “PBM E-score” value was -0.179. CAACGTGG was tested, and the “PBM E-score” value was -0.125. ATCCATGC was tested, and the “PBM E-score” value was 0.0381. For CCAACGTA, the “PBM E-score” value was -0.0112. CCCTGAGA was tested, and the “PBM E-score” value was -0.173. With CGAGGCCC the “PBM E-score” value was -0.191. For GGACAACC, the “PBM E-score” value was -0.128. In the case of CTAACGAC, the “PBM E-score” value is reported as -0.0383. For ACTGTGCC, the “PBM E-score” value was -0.136. With AAGATCCG the “PBM E-score” value was -0.178. GGTTTAGA was tested, and the “PBM E-score” value was 0.0782. For ATCTGGGG, the “PBM E-score” value was -0.226. CGTAAGAC was tested, and the “PBM E-score” value was 0.0141. In the case of GCGTCCCA, the “PBM E-score” value is reported as -0.121. With AAAGCCCT the “PBM E-score” value was -0.254. With TAGTATAA the “PBM E-score” value was 0.131. For AACCTCCG, the “PBM E-score” value was -0.132. In the case of TACGCAGA, the “PBM E-score” value is reported as 0.16. In the case of TGAAACAA, the “PBM E-score” value is reported as 0.106. ATCACCTC was tested, and the “PBM E-score” value was 0.0289. In the case of GTAGGGGA, the “PBM E-score” value is reported as -0.251. With ATGCCAAT the “PBM E-score” value was 0.0124. For AGCGTCCC, the “PBM E-score” value was -0.134. GAATAAAC was tested, and the “PBM E-score” value was 0.104. For ACGAGGAA, the “PBM E-score” value was 0.136. In the case of GCGTGGTA, the “PBM E-score” value is reported as 0.0194. In the case of ACGCGACT, the “PBM E-score” value is reported as -0.121. In the case of GCAGACCA, the “PBM E-score” value is reported as -0.126. ATCTCGGG was tested, and the “PBM E-score” value was -0.0623. For GCACTTTA, the “PBM E-score” value was 0.0421. For ACGCGACA, the “PBM E-score” value was 0.219. With AAGCAGAG the “PBM E-score” value was 0.0381. ACTCCTGC was tested, and the “PBM E-score” value was -0.0436. GTTTACCA was tested, and the “PBM E-score” value was 0.107. For ATCGATAG, the “PBM E-score” value was 0.0603. For CATCTTAG, the “PBM E-score” value was 0.0578. ATGGTTAA was tested, and the “PBM E-score” value was 0.0266. In the case of CTTGTTAC, the “PBM E-score” value is reported as 0.0269. With ATGCGACC the “PBM E-score” value was 0.0864. In the case of CGACTACC, the “PBM E-score” value is reported as -0.172. GCATCCAA was tested, and the “PBM E-score” value was -0.025. AAGGCCTT was tested, and the “PBM E-score” value was -0.18. With CAATACGG the “PBM E-score” value was -0.0587. For CCGTCGCA, the “PBM E-score” value was 0.0618. AATTTATA was tested, and the “PBM E-score” value was 0.294. With CATGAAGG the “PBM E-score” value was 0.0231. ACTAGCTC was tested, and the “PBM E-score” value was 0.00178. In the case of CCGTCTCA, the “PBM E-score” value is reported as -0.0611. For GCGCGTCA, the “PBM E-score” value was 0.131. ATTGGAGG was tested, and the “PBM E-score” value was -0.144. With CATTCGGG the “PBM E-score” value was -0.11. In the case of AGCAAGTG, the “PBM E-score” value is reported as -0.0827. For AGCTGATG, the “PBM E-score” value was 0.161. With CCGGACTC the “PBM E-score” value was -0.0808. CAGTGCGA was tested, and the “PBM E-score” value was 0.0242.
